In PMC6827163:
The exact form of at least one protein or probe is not confirmed. At least one result comes from cells or an extract, where the contact may be indirect.

Amino acid sequences for entries named in this document (tags omitted). A change or cut given only in a name is not applied to a line headed by its entry.
UniProt P17676: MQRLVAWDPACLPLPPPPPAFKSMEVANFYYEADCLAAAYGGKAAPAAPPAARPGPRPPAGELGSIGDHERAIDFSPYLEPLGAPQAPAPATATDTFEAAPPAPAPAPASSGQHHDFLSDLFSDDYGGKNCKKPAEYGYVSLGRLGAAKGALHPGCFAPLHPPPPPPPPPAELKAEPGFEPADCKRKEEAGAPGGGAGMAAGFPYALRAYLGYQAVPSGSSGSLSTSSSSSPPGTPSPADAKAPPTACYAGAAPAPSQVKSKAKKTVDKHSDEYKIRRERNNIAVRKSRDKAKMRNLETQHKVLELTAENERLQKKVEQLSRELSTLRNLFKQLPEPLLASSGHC

Molecular target: CEBPB (endogenous, HEK-293 nuclear extract) (UniProt P17676)
Experiment: EMSA supershift
Settings: 5 mM Mg2+, poly(dI.dC), CEBPB antibody, 20 uL: 20 fmol biotin probe, 8-9 ug nuclear protein, 1x binding buffer (Thermo LightShift kit; salt and pH not stated), 2.5% glycerol, 5 mM MgCl2, 50 ng/uL poly(dI.dC), protein in an extract, label: 5'-biotin

Sequence: ATTTCGTTCTCTCCCGGTTCCCCAACGTTAAAAAAAAAG (double strand) [HTR1A(-1235--1196) WT probe]
- binding result: binds
